# Experimental data reported in PubChem BioAssay (NCATS).
# The chains behind the UniProt entries cited, without tags or fusion partners. Where a name states a change or a piece, a line headed by the entry shows the natural chain unless it says otherwise.
# UniProt Q9HAZ1: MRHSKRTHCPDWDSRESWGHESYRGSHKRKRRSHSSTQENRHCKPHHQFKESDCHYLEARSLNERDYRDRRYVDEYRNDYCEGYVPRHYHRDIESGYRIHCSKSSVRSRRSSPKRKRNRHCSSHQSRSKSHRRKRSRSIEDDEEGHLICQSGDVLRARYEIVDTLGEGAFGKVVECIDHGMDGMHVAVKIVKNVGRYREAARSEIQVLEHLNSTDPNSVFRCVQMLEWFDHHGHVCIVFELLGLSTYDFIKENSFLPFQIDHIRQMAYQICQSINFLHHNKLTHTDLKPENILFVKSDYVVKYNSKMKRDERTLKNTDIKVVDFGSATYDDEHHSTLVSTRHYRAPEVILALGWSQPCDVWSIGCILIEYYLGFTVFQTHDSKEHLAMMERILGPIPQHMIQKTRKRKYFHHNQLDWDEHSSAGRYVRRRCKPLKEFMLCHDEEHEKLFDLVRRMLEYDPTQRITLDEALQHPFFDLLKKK
# UniProt O94782: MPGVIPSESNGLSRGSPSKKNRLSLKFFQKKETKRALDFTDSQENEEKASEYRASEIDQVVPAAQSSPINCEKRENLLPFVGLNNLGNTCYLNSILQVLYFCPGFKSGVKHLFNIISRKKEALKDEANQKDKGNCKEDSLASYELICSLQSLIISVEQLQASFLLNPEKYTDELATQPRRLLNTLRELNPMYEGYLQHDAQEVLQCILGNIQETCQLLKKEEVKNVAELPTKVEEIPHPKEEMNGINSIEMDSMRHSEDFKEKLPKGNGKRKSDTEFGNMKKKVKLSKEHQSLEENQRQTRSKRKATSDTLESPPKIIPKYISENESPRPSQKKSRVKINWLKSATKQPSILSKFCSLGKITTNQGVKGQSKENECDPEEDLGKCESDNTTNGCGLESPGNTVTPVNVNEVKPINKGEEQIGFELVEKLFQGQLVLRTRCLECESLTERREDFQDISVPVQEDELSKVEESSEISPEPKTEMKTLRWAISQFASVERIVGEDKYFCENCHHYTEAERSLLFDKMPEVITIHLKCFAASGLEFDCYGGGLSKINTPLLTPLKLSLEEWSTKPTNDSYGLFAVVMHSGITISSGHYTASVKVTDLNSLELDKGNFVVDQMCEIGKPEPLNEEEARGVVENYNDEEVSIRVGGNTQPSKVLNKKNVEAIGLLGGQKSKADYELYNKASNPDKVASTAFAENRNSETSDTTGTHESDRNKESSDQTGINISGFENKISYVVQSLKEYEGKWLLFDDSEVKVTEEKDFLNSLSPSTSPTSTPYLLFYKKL
# UniProt O95398: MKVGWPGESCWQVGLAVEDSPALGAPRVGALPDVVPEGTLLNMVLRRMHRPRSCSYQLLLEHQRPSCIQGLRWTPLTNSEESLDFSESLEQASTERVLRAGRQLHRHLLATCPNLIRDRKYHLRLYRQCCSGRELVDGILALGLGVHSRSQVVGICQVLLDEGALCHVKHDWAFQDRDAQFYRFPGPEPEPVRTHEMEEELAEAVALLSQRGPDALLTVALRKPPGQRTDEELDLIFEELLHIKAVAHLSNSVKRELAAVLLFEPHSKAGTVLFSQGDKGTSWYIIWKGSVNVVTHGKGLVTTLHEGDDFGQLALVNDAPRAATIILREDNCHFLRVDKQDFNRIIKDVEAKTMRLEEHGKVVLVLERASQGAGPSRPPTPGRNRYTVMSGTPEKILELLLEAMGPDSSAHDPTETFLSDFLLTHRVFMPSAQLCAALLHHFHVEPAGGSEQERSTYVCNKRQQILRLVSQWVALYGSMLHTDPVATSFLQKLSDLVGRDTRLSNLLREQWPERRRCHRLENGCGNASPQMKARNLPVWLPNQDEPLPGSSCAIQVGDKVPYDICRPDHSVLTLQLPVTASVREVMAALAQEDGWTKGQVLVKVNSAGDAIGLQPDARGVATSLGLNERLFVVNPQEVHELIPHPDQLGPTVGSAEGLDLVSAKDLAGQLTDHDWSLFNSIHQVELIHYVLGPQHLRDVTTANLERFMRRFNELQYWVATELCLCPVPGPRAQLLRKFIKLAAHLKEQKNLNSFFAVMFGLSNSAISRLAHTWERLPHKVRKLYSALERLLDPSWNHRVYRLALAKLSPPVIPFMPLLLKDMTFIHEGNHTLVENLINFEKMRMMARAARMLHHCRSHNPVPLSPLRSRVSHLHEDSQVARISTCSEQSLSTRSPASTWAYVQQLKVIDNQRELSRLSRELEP
# UniProt Q8WZA2: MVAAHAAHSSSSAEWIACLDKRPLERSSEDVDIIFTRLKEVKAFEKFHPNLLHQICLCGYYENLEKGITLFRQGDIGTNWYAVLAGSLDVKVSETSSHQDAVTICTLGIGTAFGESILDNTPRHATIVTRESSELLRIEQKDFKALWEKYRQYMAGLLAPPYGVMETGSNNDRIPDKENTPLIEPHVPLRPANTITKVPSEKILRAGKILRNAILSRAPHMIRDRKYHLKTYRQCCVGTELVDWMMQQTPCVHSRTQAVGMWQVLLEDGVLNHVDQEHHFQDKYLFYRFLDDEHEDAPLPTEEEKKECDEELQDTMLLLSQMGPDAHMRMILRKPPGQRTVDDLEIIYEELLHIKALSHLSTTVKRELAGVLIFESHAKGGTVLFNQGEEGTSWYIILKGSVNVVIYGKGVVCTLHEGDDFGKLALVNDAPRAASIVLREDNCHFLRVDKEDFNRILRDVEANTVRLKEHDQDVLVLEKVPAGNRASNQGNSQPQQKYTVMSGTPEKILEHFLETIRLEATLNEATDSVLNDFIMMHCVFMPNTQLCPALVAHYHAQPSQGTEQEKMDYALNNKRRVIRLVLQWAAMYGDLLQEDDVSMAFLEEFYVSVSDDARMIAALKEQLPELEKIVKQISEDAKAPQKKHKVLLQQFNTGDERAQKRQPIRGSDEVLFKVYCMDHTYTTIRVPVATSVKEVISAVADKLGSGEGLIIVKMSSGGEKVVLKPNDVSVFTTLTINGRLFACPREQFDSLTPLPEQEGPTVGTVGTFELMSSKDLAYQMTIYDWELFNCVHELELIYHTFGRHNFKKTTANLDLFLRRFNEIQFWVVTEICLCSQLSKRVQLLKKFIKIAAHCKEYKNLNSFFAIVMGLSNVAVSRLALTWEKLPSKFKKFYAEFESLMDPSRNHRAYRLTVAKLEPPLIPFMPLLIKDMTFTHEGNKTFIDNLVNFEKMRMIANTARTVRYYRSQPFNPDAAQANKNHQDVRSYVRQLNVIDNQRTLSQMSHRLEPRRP
# UniProt Q07343: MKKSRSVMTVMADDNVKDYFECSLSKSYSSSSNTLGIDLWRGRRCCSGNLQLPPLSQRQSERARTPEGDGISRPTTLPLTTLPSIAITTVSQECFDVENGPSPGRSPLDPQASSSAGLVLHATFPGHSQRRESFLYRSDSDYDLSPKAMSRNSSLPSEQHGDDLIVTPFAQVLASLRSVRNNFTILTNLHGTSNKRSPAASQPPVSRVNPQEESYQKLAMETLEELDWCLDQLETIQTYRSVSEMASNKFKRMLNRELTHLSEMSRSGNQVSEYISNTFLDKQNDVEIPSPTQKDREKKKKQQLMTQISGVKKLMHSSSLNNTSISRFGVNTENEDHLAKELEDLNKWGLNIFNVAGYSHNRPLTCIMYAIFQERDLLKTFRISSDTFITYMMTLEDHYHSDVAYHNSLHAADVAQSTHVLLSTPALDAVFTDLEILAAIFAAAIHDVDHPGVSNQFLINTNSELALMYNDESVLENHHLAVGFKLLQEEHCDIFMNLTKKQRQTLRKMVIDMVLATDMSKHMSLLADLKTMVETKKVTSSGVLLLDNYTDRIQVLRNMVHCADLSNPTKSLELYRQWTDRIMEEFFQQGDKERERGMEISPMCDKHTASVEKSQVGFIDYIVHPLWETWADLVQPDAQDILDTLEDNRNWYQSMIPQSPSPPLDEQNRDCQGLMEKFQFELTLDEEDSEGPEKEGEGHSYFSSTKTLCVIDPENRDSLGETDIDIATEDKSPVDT
# UniProt P08684, whole entry, looked up: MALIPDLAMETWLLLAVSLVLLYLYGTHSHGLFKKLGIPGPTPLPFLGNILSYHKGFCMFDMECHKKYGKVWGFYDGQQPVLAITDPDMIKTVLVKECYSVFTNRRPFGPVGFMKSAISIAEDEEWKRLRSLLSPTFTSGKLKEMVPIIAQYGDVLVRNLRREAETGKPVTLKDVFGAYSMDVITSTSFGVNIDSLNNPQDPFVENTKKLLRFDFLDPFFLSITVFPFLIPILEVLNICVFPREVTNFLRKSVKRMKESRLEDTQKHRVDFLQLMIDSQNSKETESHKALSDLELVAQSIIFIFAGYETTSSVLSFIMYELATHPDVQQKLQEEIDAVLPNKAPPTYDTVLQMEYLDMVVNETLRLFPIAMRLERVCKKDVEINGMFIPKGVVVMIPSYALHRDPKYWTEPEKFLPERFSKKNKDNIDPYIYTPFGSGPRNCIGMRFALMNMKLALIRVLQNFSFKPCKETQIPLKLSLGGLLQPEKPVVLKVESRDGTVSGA
# Inconclusive results, whose numbers are uncertain, are shown with a selection of clear calls. For some assays here: Where the call is inconclusive, the potency comes from a doubtful curve fit. Calls of active or inactive are those of the source. Unless noted, calls come from the whole dose curve; as a rule, active = well fitted curve in the direction sought with a large enough effect; inconclusive = small, poorly fitted or top-dose-only effect, or another doubt; inactive = no such curve, though single readings can be large; an effect the other way counts as inactive or inconclusive.
# Assays:
# [1] = Stat Signaling Pathway (AID 446; active = well fitted curve in either direction with a large enough effect, not every such curve was filed as active; inconclusive = small, poorly fitted or top-dose-only effect, or another doubt;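 note: ME-180 cervical cancer cells given 40 pM IL-6 alongside compound; SIE-controlled beta-lactamase reporter measured as 460/530 nm FRET emission ratio; % is set by controls: 0 for no effect and ±100 for the full control effect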); settings: ME-180 SIE beta-lactamase reporter, IL-6 stimulated, 5 h; at 7.69 µM (top of the series) unless noted
# Method in brief: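 Screening format detects activators and inhibitors alike: ME-180 SIE-bla cells stimulated at 40 pM IL-6 for 5 hrs with compound, then dual-emission beta-lactamase read at 405 nm excitation.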
# [2] = biological target: Mitogen-activated protein kinase 10 (Mus musculus) (UniProt Q61831); experiment: JNK3 AlphaScreen Assay (AID 530; active = well fitted curve in either direction with a large enough effect, not every such curve was filed as active; inconclusive = small, poorly fitted or top-dose-only effect, or another doubt;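 note: kinase came from lysate of stimulated human HepG2 cells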; note: potency is the fitted concentration of half-maximal effect;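 for activity change, negative = inhibition: signal reports phosphorylation of biotinylated GST-cJun 1-79 at Ser73 with 10 µM ATP; % is set by controls: 0 for no effect and ±100 for the full control effect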); settings: JNK3 lysate, c-Jun phosphorylation; activity change, negative = inhibition: at 57.1 µM (top of the series)
# Method in brief: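 Inhibitors reduce antibody binding to phosphorylated biotin-cJun, lowering AlphaScreen luminescence. Lysates from HepG2 cells pre-activated by IL-1beta plus TNF-alpha supplied JNK3; compounds were titrated.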
# [3] = biological target: Dual specificity protein kinase CLK4 (Homo sapiens) (UniProt Q9HAZ1); experiment: qHTS Assay for Inhibitors of CDC-like Kinase 4 (Kinase-Glo Assay) (AID 1770); note: potency is the fitted concentration of half-maximal effect; nearly all actives have a fitted effect of over 65% in size
# Method in brief: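 Recombinant human Clk4 (25 nM) phosphorylated RS repeat peptide (100 uM) with 1 uM ATP in Tris pH 7.5/MgCl2/EGTA/DTT/Triton buffer for 4.5 h at room temperature. Residual ATP was quantified by Kinase-Glo luciferase luminescence.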
# [4] = biological target: Dual specificity protein kinase CLK4 (Homo sapiens) (UniProt Q9HAZ1); experiment: qHTS Assay for Inhibitors of CDC-like Kinase 4 (ADP-Glo Assay) (AID 1771); note: potency is the fitted concentration of half-maximal effect; nearly all actives have a fitted effect of over 70% in size
# Method in brief: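 25 nM Clk4 with 100 uM RS repeat peptide and 1 uM ATP (final) in buffer with 2 mM MgCl2, 0.5 mM EGTA, 2.5 mM DTT, 0.01% Triton X-100; 1 h at room temperature; ADP-Glo luminescence for ADP formed.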
# [5] = biological target: Ubiquitin carboxyl-terminal hydrolase 1 (Homo sapiens) (UniProt O94782); experiment: Inhibitors of USP1/UAF1: Pilot qHTS (AID 504865); note: nearly all actives have a fitted effect of over 35% in size; note: potency is the fitted concentration of half-maximal effect
# Method in brief: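 USP1/UAF1 complex (1nM) preincubated with compound 15 min at room temperature, then Ub-Rho substrate (150nM final) added. Fluorescence read kinetically at 480/540 nm, 6 reads every 60 seconds. Buffer: 50mM HEPES pH 7.8, 0.5mM EDTA, 0.1 mg/ml BSA, 1mM TCEP, 0.01% Tween-20.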
# [6] = Primary qHTS for small molecule stabilizers of the endoplasmic reticulum resident proteome: Secreted ER Calcium Modulated Protein (SERCaMP) assay (AID 1508630); settings: SH-SY5Y GLuc-SERCaMP (Gaussia luciferase released on ER calcium loss) secretion, thapsigargin, luminescence; activity change, negative = inhibition: at 38.4 µM (top of the series) unless noted; note: potency is the fitted concentration of half-maximal effect
# Method in brief: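 GLuc-SERCaMP-expressing SH-SY5Y cells, pretreated 16 h with compound, are challenged with thapsigargin to empty ER calcium stores; after 4 h, coelenterazine is added directly to the medium and luminescence is imaged.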
# [7] = biological target: Rap guanine nucleotide exchange factor 3 (Homo sapiens) (UniProt O95398); experiment: Confirmatory qHTS for agonist of cAMP-regulated guanine nucleotide exchange factor 3 (EPAC1) (AID 1645881); settings: EPAC1 Rap1B BODIPY-GDP exchange fluorescence; activation: at 154 µM (top of the series), 100% = cAMP control response; note: nearly all actives have a fitted effect of over 75% in size; note: potency is the fitted concentration of half-maximal effect;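 for activation: EPAC1 catalysed release of BODIPY-GDP from Rap1B seen as fluorescence loss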
# [8] = biological target: Rap guanine nucleotide exchange factor 4 (Homo sapiens) (UniProt Q8WZA2); experiment: Confirmatory qHTS for agonist of cAMP-regulated guanine nucleotide exchange factor 4 (EPAC2) (AID 1645884); settings: EPAC2 GEF activity, Rap1B-BODIPY-GDP fluorescence; activation: at 154 µM (top of the series), percent relative to cAMP agonist control;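 note: nucleotide exchange releases bodipy-GDP from Rap1 and this lowers its fluorescence; nearly all actives have a fitted effect of over 65% in size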; note: potency is the fitted concentration of half-maximal effect
# [9] = AP1 Signaling Pathway (AID 357; active = well fitted curve in either direction with a large enough effect, not every such curve was filed as active; inconclusive = small, poorly fitted or top-dose-only effect, or another doubt;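 note: ME-180 reporter cells stimulated with EGF at its EC50 level; % is set by controls: 0 for no effect and ±100 for the full control effect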); settings: ME-180 (cervical carcinoma) AP-1-bla reporter, EGF-induced, beta-lactamase ratio, 5 h; at 7.69 µM (top of the series) unless noted
# Method in brief: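 Titration-series screen for positive or negative modulators of EC50 EGF-induced signaling in ME-180 cells carrying an AP-1-driven beta-lactamase reporter. After 5 hours at 37 degrees Celsius, CCF4 460nm/530nm emission ratio gave %Activity; AC50 values derived.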
# [10] = biological target: Rap guanine nucleotide exchange factor 4 (Homo sapiens) (UniProt Q8WZA2); experiment: Confirmatory qHTS for antagonist of cAMP-regulated guanine nucleotide exchange factor 4 (EPAC2) (AID 1645885); settings: activity change, negative = inhibition: at 12.7 µM (top of the series) unless noted; note: nearly all actives have a fitted effect of over 25% in size; note: potency is the fitted concentration of half-maximal effect
# [11] = biological target: Rap guanine nucleotide exchange factor 3 (Homo sapiens) (UniProt O95398); experiment: Confirmatory qHTS for antagonist of cAMP-regulated guanine nucleotide exchange factor 3 (EPAC1) (AID 1645880); settings: EPAC1 Rap1B-BODIPY-GDP exchange, fluorescence; activity, negative = inhibition: at 115 µM (top of the series); note: nearly all actives have a fitted effect of over 55% in size; note: potency is the fitted concentration of half-maximal effect;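 for activity, negative = inhibition: plate controls were DMSO only for no effect and full effect of the ATA control for full effect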
# Method in brief: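 Nucleotide exchange uses 100 nM EPAC1, 250 nM RAP1B-BODIPY-GDP and 50 uM GDP, with compounds in a concentration-titration series. After 5 min at room temperature, fluorescence (480 nm ex/540 nm em) is read every 5 min for 30 min. Data are normalized to control ATA and DMSO.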
# [12] = NFAT Signaling Pathway (AID 444; active = well fitted curve in either direction with a large enough effect, not every such curve was filed as active; inconclusive = small, poorly fitted or top-dose-only effect, or another doubt;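 note: carbachol stimulus at about its EC50 of 1 µM final; % is set by controls: 0 for no effect and ±100 for the full control effect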); settings: Jurkat NFAT-bla M1, carbachol, beta-lactamase ratio, 5 h; at 7.69 µM (top of the series) unless noted
# Method in brief: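 Jurkat cells carrying an NFAT-driven β-lactamase reporter and co-transfected muscarinic M1 receptor were treated with compound plus carbachol (1 uM final, an EC50 level) for 5 h at 37 °C. CCF4 loading followed for 1 h at RT; 460/530 nm ratio gave %activity.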
# [13] = biological target: Dual specificity protein kinase CLK4 (Homo sapiens) (UniProt Q9HAZ1); experiment: qHTS Assay for Inhibitors of CDC-like Kinase 4 (ADP-FP Assay) (AID 1795); note: % is set by controls: 0 for no effect and ±100 for the full control effect; nearly all actives have a fitted effect of over 60% in size
# Method in brief: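 Recombinant human Clk4 (6.25 nM) phosphorylated RS repeat peptide (100 uM) with 1 uM ATP in Tris pH 7.5/MgCl2/EGTA/DTT/Triton buffer for one hour. ADP was quantified by Transcreener competitive fluorescence polarization against an ADP calibration curve.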
# [14] = biological target: 3',5'-cyclic-AMP phosphodiesterase 4B (Homo sapiens) (UniProt Q07343); experiment: qHTS Assay for Inhibitors of PDE-IV (AID 607; active = well fitted activation curve with a large enough effect in the main read-out, with a control signal flat, not every such curve was filed as active; inconclusive = small, poorly fitted or top-dose-only effect, or effect the other way, or a change in a side signal; note: potency is the fitted concentration of half-maximal effect); settings: HEK293 ACTOne CNG channel cells, membrane potential fluorescence; activation (PDE inhibition): at 22.9 µM (top of the series)
# Method in brief: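 The readout is membrane depolarisation from a cAMP-sensing CNG channel, detected with a potential dye at ex 535/em 590. Cells were HEK293-derived (endogenous PDE-IV) at 1000 cells/well, titrated up to 22.9 uM final.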
# [15] = biological target: Cytochrome P450 3A4 (Homo sapiens) (UniProt P08684); experiment: qHTS Assay for Inhibitors and Substrates of Cytochrome P450 3A4 (AID 884); settings: recombinant CYP3A4, Luciferin-PPXE luminescence; activity change, negative = inhibition: at 57.1 µM (top of the series); note: potency is the fitted concentration of half-maximal effect; nearly all actives have a fitted effect of over 50% in size
# Method in brief: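 20 nM human CYP3A4 with 25 uM Luciferin-PPXE (at KM) in 200 mM KPO4, preincubated 10 min with compound; NADPH regeneration started a 60 min RT reaction. Luciferin detected by luminescence, normalized to 57 uM ketoconazole as full inhibition.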
compound,measurement,setting,value
COc1cccc(Nc2ncc3nc(-c4cccs4)c(=O)n(-c4ccccc4)c3n2)c1,"activity, negative = inhibition",[1],inactive: 3.1%
same,Potency,[2],inactive
same,Potency,[3],"inconclusive: 3.16 µM [falling, partial curve]"
same,Potency,[4],"inconclusive: 2.24 µM [falling, full curve]"
same,Potency,[5],active: 35.5 µM
same,Potency,[6],inactive
same,Potency,[7],active: 70.6 µM
same,Potency,[8],"inconclusive: 88.9 µM [activator, single point]"
COc1ccc(-c2nc3cnc(Nc4cccc(OC)c4)nc3n(CCC#N)c2=O)cc1,"activity change, negative = inhibition",[9],inconclusive: -45.9% [inhibitor]
same,Potency,[6],"inconclusive: 31.6 µM [inhibitor, single point]"
same,Potency,[7],active: 70.6 µM
same,Potency,[8],active: 70.6 µM
same,Potency,[10],inactive
NC(C(=O)O)c1cc(O)c(Cl)c(O)c1 (configuration not stated),Potency,[6],inactive
same,Potency,[11],inactive
CN(C)c1ncc2nc(CCc3ccccc3)c(=O)n(Cc3cccs3)c2n1,Potency,[2],"inconclusive: 25.1 µM [activator, partial curve]"
same,Potency,[6],"inconclusive: 31.6 µM [inhibitor, single point]"
same,Potency,[7],inactive
COc1ccc2[nH]cc(CCNc3nc(-c4cccc(C#N)c4)nc4ccccc34)c2c1,"activity change, negative = inhibition",[9],inconclusive: -84.9% [inhibitor]
same,"activity change, negative = inhibition",[12],inconclusive: -128% [inhibitor]
same,"activity, negative = inhibition",[1],inconclusive: -60.9% [inhibitor]
same,Potency,[13],inactive
same,Potency,[6],inactive
same,Potency,[8],inactive
COc1ccccc1CNc1nc(-c2cccnc2)nc2ccccc12,Potency,[2],inactive
same,Potency,[14],"inconclusive: 10 µM [activator, partial curve]"
same,Potency,[15],"inconclusive: 1.26 µM [inhibitor, full curve]"
same,Potency,[3],active: 12.6 µM
same,Potency,[5],inactive
same,Potency,[6],inactive
same,Potency,[11],"inconclusive: 22.2 µM [inhibitor, partial curve, poor fit]"
same,Potency,[10],"inconclusive: 49.4 µM [inhibitor, partial curve]"

# Part of the list above, as tab-separated lines.
compound	measurement	setting	value
COc1ccc(-c2nc3cnc(Nc4cccc(OC)c4)nc3n(CCC#N)c2=O)cc1	activity change, negative = inhibition	[9]	inconclusive: -45.9% [inhibitor]
same	Potency	[6]	inconclusive: 31.6 µM [inhibitor, single point]
